Consider 14 compounds from PubChem BioAssay AID328 (DTP/NCI, 2004).

The list shows only some results of the screen, not a fair sample: it gathers tests that were run many times, whatever their T/C, doses with no T/C, and many T/C values between a quarter and a half above the control. Further doses and runs are listed elsewhere. T/C gives the treated animals as a percentage of the vehicle group. Some doses have a count of surviving animals in place of a T/C: the source holds a T/C of zero for them, seemingly a mark for toxic or unscored doses. Some survivor counts are full or nearly so, which does not show that the dose was tolerated: the source hardly ever lists a survival T/C far under the control, and the zero likely stands for such cases as well. Survivors were counted at the toxicity check, usually on the fifth day, unless a day is given; later deaths do not show. Schedule codes are those of the source, read here as Q, the interval in days (D) or hours (H), X, the number of doses. For survival time, the PubChem record calls one and a half times the control and up active, and a quarter to a half above the control has no call in these data; cut-offs in other NCI protocols can differ. Some T/C values carry the count of animals alive at the toxicity check (mostly the fifth day); where none is given, no animal had died by that day.

The subject of the assay is BDF1 mice, P388 leukemia ip, median survival T/C. Nature of the assay: NCI In Vivo Anticancer Drug Screen. Data for tumor model P388 Leukemia (intraperitoneal) in B6D2F1 (BDF1) mice. The note with it: T/C endpoint: median survival time, higher T/C = longer survival. In short, it runs like this: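 Each value expresses how treatment altered survival: treated-mouse outcome over vehicle-mouse outcome, both groups bearing the transplanted tumour.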

Where [1] appears, read: dose: 200.0 mg/kg/injection, schedule: Q04DX003 (ip), vehicle: Klucel (hydroxypropylcellulose) (HPC).
The mark [2] stands for this setting: dose: 400.0 mg/kg/injection, schedule: Q04DX003 (ip), vehicle: Klucel (hydroxypropylcellulose) (HPC).
Where [3] appears, read: dose: 400.0 mg/kg/injection, schedule: Q04DX003 (ip), vehicle: saline with Tween-80.
Where [4] appears, read: dose: 4.0 mg/kg/injection, schedule: Q01DX009 (ip), vehicle: Klucel (hydroxypropylcellulose) (HPC).

Consider `C=C(C)[C@@]12O[C@@]3(CCCCCCCCC)O[C@@H]1[C@@H]1[C@@H]4O[C@]4(CO)[C@@H](O)[C@]4(O)C(=O)C(C)=CC4[C@@]1(O3)[C@H](C)[C@H]2OC(=O)c1ccccc1` (stereo not given in full), for which the T/C (dose: 12.5 micrograms/kg/injection, schedule: Q01DX009 (ip), vehicle: saline + alcohol) is 135 % of control; the T/C (dose: 25.0 micrograms/kg/injection, schedule: Q01DX009 (ip), vehicle: saline + alcohol) is 148 % of control; the T/C (dose: 50.0 micrograms/kg/injection, schedule: Q01DX009 (ip), vehicle: saline + alcohol) was 146 % of control; the T/C (dose: 100.0 micrograms/kg/injection, schedule: Q01DX009 (ip), vehicle: saline + alcohol) is 135 % of control [5 of 6 alive]; the T/C (dose: 200.0 micrograms/kg/injection, schedule: Q01DX009 (ip), vehicle: saline + alcohol) is 143 % of control.

Consider `CC(=O)OCc1c(COC(C)=O)c(-c2ccc(Cl)c(Cl)c2)n2c1CCC2`, for which the T/C is 125 % of control (dose: 25.0 mg/kg/injection, schedule: Q01DX009 (ip), vehicle: Klucel (hydroxypropylcellulose) (HPC)) and 129 % of control (dose: 50.0 mg/kg/injection, schedule: Q01DX009 (ip), vehicle: Klucel (hydroxypropylcellulose) (HPC)).

In the case of `COC(=O)c1cc(=O)n(-c2ccccc2F)c(SC)n1`, the survivor count runs as follows: under setting [1], 4 of 6; under setting [2], 1 of 6.

Consider `O=[N+]([O-])c1cccnc1Cl`, for which the survivor count under setting [2] is reported as 0 of 6.

`O=C(O)CCC(=O)/C=C1/Nc2ccccc2C1=O`: under setting [3], the survivor count was 2 of 6.

Turning to `O=C(O)c1ccc([N+](=O)[O-])s1`, the survivor count runs as follows: (dose: 200.0 mg/kg/injection, schedule: Q01DX009 (ip), vehicle: saline with Tween-80) 6 of 6; under setting [3], 5 of 6.

As to `Cc1nc(N)c([N+](=O)[O-])cc1[N+](=O)[O-]`, the survivor count (dose: 200.0 mg/kg/injection, schedule: Q01DX001 (ip), vehicle: Klucel (hydroxypropylcellulose) (HPC)) is reported as 4 of 6 and the survivor count (dose: 400.0 mg/kg/injection, schedule: Q01DX001 (ip), vehicle: Klucel (hydroxypropylcellulose) (HPC)) is recorded as 0 of 6.

For `CCN(CC)CCC1(C#N)Cc2ccccc2N(CC)c2ccccc21` (stereo not given), the survivor count (dose: 400.0 mg/kg/injection, schedule: Q01DX009 (ip), vehicle: saline with Tween-80) is given as 1 of 6.

With `O=[N+]([O-])CC(OCCO)C(Cl)(Cl)Cl` (stereo not given), the survivor count by setting is: (dose: 25.0 mg/kg/injection, schedule: Q01DX009 (ip), vehicle: acetone) 2 of 6; (dose: 60.0 mg/kg/injection, schedule: Q01DX001 (ip), vehicle: Klucel (hydroxypropylcellulose) (HPC)) 0 of 6; (dose: 60.0 mg/kg/injection, schedule: Q04DX003 (ip), vehicle: saline with Tween-80) 0 of 6; (dose: 90.0 mg/kg/injection, schedule: Q01DX001 (ip), vehicle: Klucel (hydroxypropylcellulose) (HPC)) 0 of 6; (dose: 90.0 mg/kg/injection, schedule: Q04DX003 (ip), vehicle: saline with Tween-80) 0 of 6; (dose: 135.0 mg/kg/injection, schedule: Q01DX001 (ip), vehicle: Klucel (hydroxypropylcellulose) (HPC)) 0 of 6. Further, the survivor count (dose: 135.0 mg/kg/injection, schedule: Q04DX003 (ip), vehicle: saline with Tween-80) is given as 0 of 6.

For the compound `c1ccc2c(c1)ccc1c2c[n+](CCCCCCCC[n+]2cc3c4ccccc4ccc3c3ccccc32)c2ccccc12`, the T/C (dose: 0.78 mg/kg/injection, schedule: Q01DX009 (ip), vehicle: other) was 141 % of control. For the same compound, the survivor count by setting is: (dose: 3.13 mg/kg/injection, schedule: Q01DX009 (ip), vehicle: other) 2 of 4; (dose: 50.0 mg/kg/injection, schedule: Q01DX009 (ip), vehicle: other) 3 of 4; (dose: 100.0 mg/kg/injection, schedule: Q01DX009 (ip), vehicle: other) 0 of 4.

For the compound `CCC(C)(O)C#CC#CC(C)(O)CC` (stereo not given), the survivor count was 5 of 6 (dose: 100.0 mg/kg/injection, schedule: Q04DX003 (ip), vehicle: Klucel (hydroxypropylcellulose) (HPC)); 5 of 6 under setting [1]; 0 of 6 under setting [2].

Regarding `CC[CH2][Sn]([Cl])([Cl])[CH2]CC`, the T/C was 136 % of control (dose: 1.0 mg/kg/injection, schedule: Q01DX009 (ip), vehicle: Klucel (hydroxypropylcellulose) (HPC)); 131 % of control [5 of 6 alive] (dose: 2.0 mg/kg/injection, schedule: Q01DX009 (ip), vehicle: Klucel (hydroxypropylcellulose) (HPC)); 131 % of control under setting [4]. Besides, the survivor count runs as follows: under setting [4], 0 of 6; (dose: 8.0 mg/kg/injection, schedule: Q01DX009 (ip), vehicle: Klucel (hydroxypropylcellulose) (HPC)) 0 of 6.

Take `ONc1ncnc2nc[nH]c12`: the T/C is, setting by setting: (dose: 66.0 mg/kg/injection, schedule: Q04DX003 (ip), vehicle: saline with Tween-80) 127 % of control; (dose: 100.0 mg/kg/injection, schedule: Q04DX003 (ip), vehicle: saline with Tween-80) 140 % of control; (dose: 150.0 mg/kg/injection, schedule: Q04DX003 (ip), vehicle: saline with Tween-80) 145 % of control.

Turning to `OC1CCCC2CCC[N-]C12.OC1CCCC2CCC[N-]C12.[O]=[V][OH]` (stereo not given), the survivor count is, setting by setting: (dose: 25.0 mg/kg/injection, schedule: Q01DX009 (ip), vehicle: saline) 3 of 6; (dose: 50.0 mg/kg/injection, schedule: Q01DX009 (ip), vehicle: saline) 1 of 6.
